These are yes or no findings as the source states them, for the method shown. In cells and extracts the contact can be indirect.
Target: eGFP-Parkin fusion protein (eGFP-PKwt) (UniProt O60260)
Assay: co-IP; GFP-Trap magnetic agarose (anti-GFP VHH beads) precipitates eGFP-PK from lysates of U87 cells co-transfected with CCNA2 or CCNB1; 10 mM Tris/HCl pH 7.5, 150 mM NaCl, 0.5 mM EDTA, 0.5% Nonidet P40 substitute; 100 ug protein, overnight, 4 washes; Western blot

Protein sequences, listed by entry. Tags and fused reporters are not part of them.
UniProt O60260: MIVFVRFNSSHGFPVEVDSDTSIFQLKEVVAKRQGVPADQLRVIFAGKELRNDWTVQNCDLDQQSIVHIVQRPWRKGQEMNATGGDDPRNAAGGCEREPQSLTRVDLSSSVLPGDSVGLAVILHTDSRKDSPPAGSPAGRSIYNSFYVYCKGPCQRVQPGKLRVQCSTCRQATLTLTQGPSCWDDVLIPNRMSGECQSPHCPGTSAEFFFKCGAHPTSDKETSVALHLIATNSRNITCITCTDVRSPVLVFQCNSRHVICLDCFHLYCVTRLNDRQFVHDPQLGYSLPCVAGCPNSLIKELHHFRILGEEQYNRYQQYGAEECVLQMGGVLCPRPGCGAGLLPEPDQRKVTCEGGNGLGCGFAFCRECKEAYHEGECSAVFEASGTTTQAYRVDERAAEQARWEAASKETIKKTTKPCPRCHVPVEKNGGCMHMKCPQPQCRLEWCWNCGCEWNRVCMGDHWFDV
UniProt P20248: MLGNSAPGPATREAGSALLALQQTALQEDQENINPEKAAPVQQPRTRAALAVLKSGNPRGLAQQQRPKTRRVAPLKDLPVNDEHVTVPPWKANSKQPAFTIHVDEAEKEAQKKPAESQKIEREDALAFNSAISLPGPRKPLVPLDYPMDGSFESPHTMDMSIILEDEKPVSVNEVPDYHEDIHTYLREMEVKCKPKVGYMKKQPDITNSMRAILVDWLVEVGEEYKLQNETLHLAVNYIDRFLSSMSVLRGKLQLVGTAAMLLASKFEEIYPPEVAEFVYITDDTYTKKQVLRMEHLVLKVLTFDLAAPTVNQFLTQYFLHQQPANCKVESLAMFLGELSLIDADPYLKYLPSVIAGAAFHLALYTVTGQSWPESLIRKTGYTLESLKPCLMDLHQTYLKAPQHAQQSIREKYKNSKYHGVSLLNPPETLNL

binding: no binding
Substance: cyclin A2 (from UniProt P20248 1-432)
